# Where two headings read alike, the source gives them in different places. No constants are given. Whether binding was seen depends on the method and setting. Binding calls can cover weak binding; strength is not graded here. Sequences can lack the tags named with a protein. For some assays here: Binding seen in cells or lysates may run through a third protein.
# Sequences of proteins named here, by UniProt entry; tags and fusion partners are left off. A change or cut given only in a name is not applied to a line headed by its entry.
# UniProt P51587: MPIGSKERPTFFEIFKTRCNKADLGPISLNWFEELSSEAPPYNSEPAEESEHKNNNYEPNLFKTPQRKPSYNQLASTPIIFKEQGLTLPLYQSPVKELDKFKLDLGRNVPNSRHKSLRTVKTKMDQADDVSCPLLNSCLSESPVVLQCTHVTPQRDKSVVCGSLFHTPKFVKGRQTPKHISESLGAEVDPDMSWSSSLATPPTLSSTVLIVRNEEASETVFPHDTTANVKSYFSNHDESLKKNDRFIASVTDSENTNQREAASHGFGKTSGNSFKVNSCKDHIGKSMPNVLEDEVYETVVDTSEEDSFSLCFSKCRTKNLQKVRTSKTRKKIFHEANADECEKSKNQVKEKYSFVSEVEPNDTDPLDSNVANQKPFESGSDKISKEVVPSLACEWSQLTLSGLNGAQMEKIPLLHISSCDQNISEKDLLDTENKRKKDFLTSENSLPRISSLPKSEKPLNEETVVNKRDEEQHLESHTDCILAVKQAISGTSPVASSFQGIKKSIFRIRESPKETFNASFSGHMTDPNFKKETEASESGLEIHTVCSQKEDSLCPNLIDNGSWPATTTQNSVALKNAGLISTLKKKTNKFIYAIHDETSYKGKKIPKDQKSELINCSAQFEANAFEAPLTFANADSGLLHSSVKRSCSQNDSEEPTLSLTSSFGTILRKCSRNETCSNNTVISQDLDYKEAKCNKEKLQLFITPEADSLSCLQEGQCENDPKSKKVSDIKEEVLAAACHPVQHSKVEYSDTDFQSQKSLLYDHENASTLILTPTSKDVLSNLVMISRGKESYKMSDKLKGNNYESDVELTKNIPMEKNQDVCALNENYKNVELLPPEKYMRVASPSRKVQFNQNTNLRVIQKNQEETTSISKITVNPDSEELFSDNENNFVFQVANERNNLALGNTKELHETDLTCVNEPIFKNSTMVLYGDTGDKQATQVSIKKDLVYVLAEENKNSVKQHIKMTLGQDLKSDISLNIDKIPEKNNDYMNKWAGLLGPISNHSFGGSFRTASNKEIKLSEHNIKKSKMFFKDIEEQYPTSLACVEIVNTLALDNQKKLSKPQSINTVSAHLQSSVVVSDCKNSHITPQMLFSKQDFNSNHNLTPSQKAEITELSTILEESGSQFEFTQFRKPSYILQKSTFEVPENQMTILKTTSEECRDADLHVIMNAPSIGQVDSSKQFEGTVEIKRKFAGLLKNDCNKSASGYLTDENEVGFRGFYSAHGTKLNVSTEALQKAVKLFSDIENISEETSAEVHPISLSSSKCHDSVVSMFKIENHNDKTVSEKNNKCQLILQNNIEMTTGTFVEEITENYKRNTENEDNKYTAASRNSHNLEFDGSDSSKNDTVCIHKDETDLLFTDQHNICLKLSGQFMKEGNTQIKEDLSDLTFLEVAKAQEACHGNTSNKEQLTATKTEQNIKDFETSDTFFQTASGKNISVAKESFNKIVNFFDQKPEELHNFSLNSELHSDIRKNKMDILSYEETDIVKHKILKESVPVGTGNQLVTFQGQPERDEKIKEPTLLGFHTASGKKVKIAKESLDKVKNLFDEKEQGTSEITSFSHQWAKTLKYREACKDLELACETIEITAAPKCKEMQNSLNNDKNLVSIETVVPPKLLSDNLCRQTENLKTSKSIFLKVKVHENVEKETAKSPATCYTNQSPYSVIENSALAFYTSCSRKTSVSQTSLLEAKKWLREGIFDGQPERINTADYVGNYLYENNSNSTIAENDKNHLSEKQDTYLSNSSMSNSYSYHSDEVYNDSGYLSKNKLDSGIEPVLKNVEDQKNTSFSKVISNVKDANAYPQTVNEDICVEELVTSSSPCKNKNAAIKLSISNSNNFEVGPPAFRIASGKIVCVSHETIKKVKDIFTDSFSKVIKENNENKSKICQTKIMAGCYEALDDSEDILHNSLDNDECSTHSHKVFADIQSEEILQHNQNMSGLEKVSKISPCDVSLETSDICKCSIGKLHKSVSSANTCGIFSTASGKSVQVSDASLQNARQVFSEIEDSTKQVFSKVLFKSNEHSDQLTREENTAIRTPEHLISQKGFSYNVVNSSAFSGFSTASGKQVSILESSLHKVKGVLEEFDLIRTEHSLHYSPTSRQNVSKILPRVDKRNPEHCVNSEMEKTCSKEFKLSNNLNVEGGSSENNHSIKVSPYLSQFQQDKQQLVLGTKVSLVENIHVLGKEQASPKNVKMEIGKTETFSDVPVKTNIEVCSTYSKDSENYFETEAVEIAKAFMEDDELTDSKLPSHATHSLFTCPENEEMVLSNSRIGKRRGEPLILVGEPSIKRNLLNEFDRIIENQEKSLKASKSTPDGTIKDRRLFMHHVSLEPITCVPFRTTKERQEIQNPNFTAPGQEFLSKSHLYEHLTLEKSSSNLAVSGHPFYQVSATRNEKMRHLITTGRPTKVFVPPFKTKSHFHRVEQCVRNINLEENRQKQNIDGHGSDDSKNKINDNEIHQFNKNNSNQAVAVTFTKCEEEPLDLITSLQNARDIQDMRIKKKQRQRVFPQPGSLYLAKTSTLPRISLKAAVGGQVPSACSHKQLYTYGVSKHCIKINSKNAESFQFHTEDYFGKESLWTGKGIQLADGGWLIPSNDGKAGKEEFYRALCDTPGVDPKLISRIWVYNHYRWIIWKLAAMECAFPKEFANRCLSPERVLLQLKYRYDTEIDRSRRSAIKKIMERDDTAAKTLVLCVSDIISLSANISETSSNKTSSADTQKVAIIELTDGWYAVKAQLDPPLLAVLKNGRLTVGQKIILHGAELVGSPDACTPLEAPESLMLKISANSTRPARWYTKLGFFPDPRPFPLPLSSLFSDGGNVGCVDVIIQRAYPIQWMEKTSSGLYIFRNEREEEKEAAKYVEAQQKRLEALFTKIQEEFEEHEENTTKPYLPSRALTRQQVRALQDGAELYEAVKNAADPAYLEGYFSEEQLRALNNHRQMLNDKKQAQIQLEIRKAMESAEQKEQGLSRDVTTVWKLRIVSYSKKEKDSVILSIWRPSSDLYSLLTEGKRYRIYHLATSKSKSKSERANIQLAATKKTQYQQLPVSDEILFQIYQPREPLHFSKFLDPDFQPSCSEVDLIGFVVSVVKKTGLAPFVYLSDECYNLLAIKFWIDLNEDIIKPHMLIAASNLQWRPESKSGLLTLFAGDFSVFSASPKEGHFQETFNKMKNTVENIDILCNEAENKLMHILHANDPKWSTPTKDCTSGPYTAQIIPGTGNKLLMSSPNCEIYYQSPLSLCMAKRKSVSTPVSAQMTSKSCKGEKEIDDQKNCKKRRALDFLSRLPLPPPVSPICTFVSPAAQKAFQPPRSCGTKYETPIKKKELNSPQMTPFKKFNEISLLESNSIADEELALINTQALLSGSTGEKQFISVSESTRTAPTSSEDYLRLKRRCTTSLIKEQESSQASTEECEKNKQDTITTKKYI
# Columns and labels:
# [1] = target: 2XMBP-tagged BRCA2 BRC1-4 (human) (UniProt P51587); experiment: pull-down
# [2] = target: 2XMBP-tagged BRCA2 BRC5-8 (human) (UniProt P51587); experiment: pull-down
# [3] = target: 2XMBP-tagged BRCA2 BRC7-8 (human) (UniProt P51587); experiment: pull-down
# [4] = target: 2XMBP-tagged BRCA2 BRC1-2 (human) (UniProt P51587); experiment: pull-down
# [5] = target: 2XMBP-tagged BRCA2 BRC1-8 repeats (human) (UniProt P51587); experiment: pull-down
# [6] = target: 2XMBP-tagged BRCA2 BRC5-6 (human) (UniProt P51587); experiment: pull-down
# [7] = target: 2XMBP-tagged BRCA2 N-terminal domain (human) (UniProt P51587); experiment: pull-down
# [8] = target: GAL4 BD-BRC1-2 (HA-tagged BRC1-2 of BRCA2 fused to the GAL4 DNA binding domain) (human) (UniProt P51587); experiment: two-hybrid
# [9] = target: GAL4 BD-BRC1-2 (HA-tagged BRC1-2 of BRCA2 fused to the GAL4 DNA binding domain) (human) (UniProt P51587); experiment: two-hybrid; remark: listed apart in the source
# [10] = target: GAL4 BD-BRC1-2 (HA-tagged BRC1-2 of BRCA2 fused to the GAL4 DNA binding domain) (human) (UniProt P51587); experiment: two-hybrid; remark: listed apart in the source
# [11] = target: GAL4 BD-BRC1-2 (HA-tagged BRC1-2 of BRCA2 fused to the GAL4 DNA binding domain) (human) (UniProt P51587); experiment: two-hybrid; remark: listed apart in the source
Binder,binding [1],binding [2],binding [3],binding [4],binding [5],binding [6],binding [7],binding [8],binding [9],binding [10],binding [11]
"HA-tagged RAD51D (protein, UniProt O75771 1-328) MGVLRVGLCPGLTEEMIQLLRSHRIKTVVDLVSADLEEVAQKCGLSYKALVALRRVLLAQFSAFPVNGADLYEELKTSTAILSTGIGSLDKLLDAGLYTGEVTEIVGGPGSGKTQVCLCMAANVAHGLQQNVLYVDSNGGLTASRLLQLLQAKTQDEEEQAEALRRIQVVHAFDIFQMLDVLQELRGTVAQQVTGSSGTVKVVVVDSVTAVVSPLLGGQQREGLALMMQLARELKTLARDLGMAVVVTNHITRDRDSGRLKPALGRSWSFVPSTRILLDTIEGAGASGGRRMACLAKSSRQPTGFQEMVDIGTWGTSEQSATLQGDQT",binds,binds,binds,binds,binds,binds,binds weakly,,,,
"HA-tagged XRCC2 (protein, UniProt O43543 1-280) MCSAFHRAESGTELLARLEGRSSLKEIEPNLFADEDSPVHGDILEFHGPEGTGKTEMLYHLTARCILPKSEGGLEVEVLFIDTDYHFDMLRLVTILEHRLSQSSEEIIKYCLGRFFLVYCSSSTHLLLTLYSLESMFCSHPSLCLLILDSLSAFYWIDRVNGGESVNLQESTLRKCSQCLEKLVNDYRLVLFATTQTIMQKASSSSEEPSHASRRLCDVDIDYRPYLCKAWQQLVKHRMFFSKQDDSQSSNQFSLVSRCLKSNSLKKHFFIIGESGVEFC",binds,binds,binds,binds,binds,binds,binds weakly,,,,
"HA-tagged XRCC3 (protein, UniProt O43542 1-346) MDLDLLDLNPRIIAAIKKAKLKSVKEVLHFSGPDLKRLTNLSSPEVWHLLRTASLHLRGSSILTALQLHQQKERFPTQHQRLSLGCPVLDALLRGGLPLDGITELAGRSSAGKTQLALQLCLAVQFPRQHGGLEAGAVYICTEDAFPHKRLQQLMAQQPRLRTDVPGELLQKLRFGSQIFIEHVADVDTLLECVNKKVPVLLSRGMARLVVIDSVAAPFRCEFDSQASAPRARHLQSLGATLRELSSAFQSPVLCINQVTEAMEEQGAAHGPLGFWDERVSPALGITWANQLLVRLLADRLREEEAALGCPARTLRVLSAPHLPPSSCSYTISAEGVRGTPGTQSH",binds,binds,binds,binds,binds,binds,no binding,,,,
"GAL4 AD-RAD51D (protein, UniProt O75771 1-328) MGVLRVGLCPGLTEEMIQLLRSHRIKTVVDLVSADLEEVAQKCGLSYKALVALRRVLLAQFSAFPVNGADLYEELKTSTAILSTGIGSLDKLLDAGLYTGEVTEIVGGPGSGKTQVCLCMAANVAHGLQQNVLYVDSNGGLTASRLLQLLQAKTQDEEEQAEALRRIQVVHAFDIFQMLDVLQELRGTVAQQVTGSSGTVKVVVVDSVTAVVSPLLGGQQREGLALMMQLARELKTLARDLGMAVVVTNHITRDRDSGRLKPALGRSWSFVPSTRILLDTIEGAGASGGRRMACLAKSSRQPTGFQEMVDIGTWGTSEQSATLQGDQT",,,,,,,,binds,binds,,
"GAL4 AD-XRCC2 (protein, UniProt O43543 1-280) MCSAFHRAESGTELLARLEGRSSLKEIEPNLFADEDSPVHGDILEFHGPEGTGKTEMLYHLTARCILPKSEGGLEVEVLFIDTDYHFDMLRLVTILEHRLSQSSEEIIKYCLGRFFLVYCSSSTHLLLTLYSLESMFCSHPSLCLLILDSLSAFYWIDRVNGGESVNLQESTLRKCSQCLEKLVNDYRLVLFATTQTIMQKASSSSEEPSHASRRLCDVDIDYRPYLCKAWQQLVKHRMFFSKQDDSQSSNQFSLVSRCLKSNSLKKHFFIIGESGVEFC",,,,,,,,,binds,binds,
"GAL4 AD-XRCC3 (protein, UniProt O43542 1-346) MDLDLLDLNPRIIAAIKKAKLKSVKEVLHFSGPDLKRLTNLSSPEVWHLLRTASLHLRGSSILTALQLHQQKERFPTQHQRLSLGCPVLDALLRGGLPLDGITELAGRSSAGKTQLALQLCLAVQFPRQHGGLEAGAVYICTEDAFPHKRLQQLMAQQPRLRTDVPGELLQKLRFGSQIFIEHVADVDTLLECVNKKVPVLLSRGMARLVVIDSVAAPFRCEFDSQASAPRARHLQSLGATLRELSSAFQSPVLCINQVTEAMEEQGAAHGPLGFWDERVSPALGITWANQLLVRLLADRLREEEAALGCPARTLRVLSAPHLPPSSCSYTISAEGVRGTPGTQSH",,,,,,,,,binds,,binds
"HA-tagged RAD51C (protein, UniProt O43502 1-376) MRGKTFRFEMQRDLVSFPLSPAVRVKLVSAGFQTAEELLEVKPSELSKEVGISKAEALETLQIIRRECLTNKPRYAGTSESHKKCTALELLEQEHTQGFIITFCSALDDILGGGVPLMKTTEICGAPGVGKTQLCMQLAVDVQIPECFGGVAGEAVFIDTEGSFMVDRVVDLATACIQHLQLIAEKHKGEEHRKALEDFTLDNILSHIYYFRCRDYTELLAQVYLLPDFLSEHSKVRLVIVDGIAFPFRHDLDDLSLRTRLLNGLAQQMISLANNHRLAVILTNQMTTKIDRNQALLVPALGESWGHAATIRLIFHWDRKQRLATLYKSPSQKECTVLFQIKPQGFRDTVVTSACSLQTEGSLSTRKRSRDPEEEL",,,,,no binding,,no binding,,,,

# — publication doi:10.1101/2024.10.10.617680
